# Measurements published in PubChem BioAssay AID1347426 (Functional Genomics Laboratory (NCATS/FGL), 2020).
# Screen size: about 31,000 sequences; about 1,400 (4.5%) were called active.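 How the source made its calls: active means median seed-adjusted z-score above 1 or below -1; inactive means the rest.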 The list shows a part of the results.
# Experiment: Novel Modifiers of Survival Motor Neuron (SMN) Protein: Gene Identification via Genome-wide siRNA Screen;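 further: luminescence tracks full-length SMN protein made from the SMN2 reporter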
# Conditions: HEK293T SMN2-luciferase reporter, siRNA knockdown, 72 h; actives lie on both sides
# Method in brief: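 HEK293T cells stably carrying an SMN2 promoter/splicing cassette–luciferase reporter were reverse-transfected with 1 pmol siRNA per well (druggable-genome library, 3 siRNAs per gene) and grown 72 h at 37 °C. Luminescence, normalized to negative-control siRNA and log10-transformed, was scored as MAD.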
row,Sequence,median seed-adjusted z-score
1,GCAUGCAGCUUCUACCGUUTT against NOP58,inactive: 0.101
2,GGAUGUAGGCUAUCCGGAATT against USP36,inactive: -0.147
3,CCGCUGAACCUGUUGAAGATT against SGMS2,inactive: -0.492
4,CCAGCUUUCGAAAAUCAUUTT against USF2,inactive: 0.352
5,CUAUGAAACUGGGAGUAAATT against CHMP5,inactive: 0
6,GCUUUUAUCCUAGACAUCATT against PAQR8,inactive: 0
7,CAACCCUUCUCUGUCCAUUTT against UCN,inactive: -0.472
8,CCGAAGAACCUGAAUUGGATT against ZDHHC23,inactive: -0.536
9,GCUUCGCAUUUGAUGGAAATT against IL20RA,inactive: -0.646
10,UCACAUAUCUCGACGGCUATT against ANP32A,inactive: 0.377
11,GGGCGAAGCUUCAACCAGATT against ZNF498,inactive: -0.476
12,GAGACUAUGUAAAGAAAGATT against CASP4,inactive: -0.564
13,CCUGUUCUGUGACAACCAUTT against EDC4,inactive: 0
14,ACGCUGUCCUGGUUCUUCATT against DGAT2L3,inactive: 0.247
15,AGAAUGCUCUCAUCACUCATT against POMT1,inactive: 0.327
16,GAAGAUAUUGGAGACACAGTT against NUDT6,inactive: 0.281
17,CCCGGGUCAUCAACUCUUATT against GGA3,inactive: -0.239
18,GGAAGUACGUGGUAUGCAATT against PRL,inactive: 0
19,GCAGUGUCCUGAGUACAGATT against CHFR,inactive: -0.673
20,UGAUCAUGCUGCUAGGCAATT against RAB37,inactive: 0.0678
21,GGCUAAGCCUCAAAAUAAATT against ABCF1,inactive: -0.221
22,CAGAGUGUAUUCGACUUUATT against MED13,inactive: -0.469
23,GCAAGACAGCUGUCAAGAATT against FIGLA,inactive: -0.064
24,GCUACUAUGCUGAAGAUCATT against CDH18,inactive: 0.21
25,CUUCAUAAUUGAUCCACGATT against PCDH18,inactive: -0.132
26,GCGACACCCAGAACAAAGATT against DPEP1,inactive: -0.886
27,GCGACGCUGGGUCUACUAUTT against S1PR4,inactive: 0.0951
28,GAUUCAAUCAUGUAAGCUUTT against RALGPS2,inactive: 0.0124
29,AAACUUGCCUGAGUACAAATT against KCNH3,inactive: -0.509
30,GAGGAAAAACUGUUCCGCATT against HOMER3,inactive: 0.148

# Some of the entries so far, with tabs.
row	Sequence	median seed-adjusted z-score
1	GCAUGCAGCUUCUACCGUUTT against NOP58	inactive: 0.101
8	CCGAAGAACCUGAAUUGGATT against ZDHHC23	inactive: -0.536
13	CCUGUUCUGUGACAACCAUTT against EDC4	inactive: 0
16	GAAGAUAUUGGAGACACAGTT against NUDT6	inactive: 0.281
17	CCCGGGUCAUCAACUCUUATT against GGA3	inactive: -0.239
23	GCAAGACAGCUGUCAAGAATT against FIGLA	inactive: -0.064
27	GCGACGCUGGGUCUACUAUTT against S1PR4	inactive: 0.0951
